Some of the results follow. Single values are uncertain, as repeats are few or missing.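 Cells were imaged in 1,536-well plates, and nuclei stained with an antibody against cleaved PARP were counted against all DNA-stained nuclei to give the apoptosis fraction. Screening doses were chosen to leave most cells alive, and resting and induced cleaved-PARP levels differ strongly between cell lines.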
Assays:
Experiment in all cases: cleaved PARP positive nuclei fraction relative to DMSO control; melanoma cells; higher = more apoptosis
Details in all cases: library dose: low library concentration; 72 h
MZ2-MEL = tested on: MZ2-MEL
MeWo = tested on: MeWo
RPMI7951 = tested on: RPMI7951
RVH-421 = tested on: RVH-421
SkMel28 = tested on: SkMel28
SkMel2 = tested on: SkMel2
SkMel30 = tested on: SkMel30
SkMel5 = tested on: SkMel5
UACC257 = tested on: UACC257
UACC62 = tested on: UACC62

| SMILES | cleaved PARP positive nuclei fraction (MZ2-MEL) [%] | cleaved PARP positive nuclei fraction (MeWo) [%] | cleaved PARP positive nuclei fraction (RPMI7951) [%] | cleaved PARP positive nuclei fraction (RVH-421) [%] | cleaved PARP positive nuclei fraction (SkMel28) [%] | cleaved PARP positive nuclei fraction (SkMel2) [%] | cleaved PARP positive nuclei fraction (SkMel30) [%] | cleaved PARP positive nuclei fraction (SkMel5) [%] | cleaved PARP positive nuclei fraction (UACC257) [%] | cleaved PARP positive nuclei fraction (UACC62) [%] |
| --- | --- | --- | --- | --- | --- | --- | --- | --- | --- | --- |
| CC[C@]1(O)C[C@H]2CN(CCc3c([nH]c4ccccc34)[C@@](C(=O)OC)(c3cc4c(cc3OC)N(C=O)[C@H]3[C@@](O)(C(=O)OC)[C@H](OC(C)=O)[C@]5(CC)C=CCN6CC[C@]43[C@@H]65)C2)C1 [vincristine] + C/C(O)=C(\C#N)C(=O)Nc1cc(Br)ccc1Br [LFM-A13] (first compound 0.0001 µM, partner dose 2 µM) | 135 | 103 | 85.9 | 38.4 | 337 | 149 | 341 | 87 | 256 | 333 |
| Nc1nc(F)nc2c1ncn2[C@@H]1O[C@H](CO)[C@@H](O)[C@@H]1O [fludarabine] + C/C(O)=C(\C#N)C(=O)Nc1cc(Br)ccc1Br [LFM-A13] (first compound 0.2 µM, partner dose 2 µM) | 84 | 664 | 154 | 53.6 | 71.9 | 1280 | 1020 | 122 | 41.9 | 47 |
| N#CC[C@H](C1CCCC1)n1cc(-c2ncnc3[nH]ccc23)cn1 [ruxolitinib] + Cc1cc(SCc2sc(-c3ccc(C(F)(F)F)c(F)c3)nc2C)ccc1OCC(=O)O [GW0742] (first compound 1 µM, partner dose 2 µM) | 211 | 72.3 | 34 | 26 | 104 | 92.6 | 68.9 | 71.9 | 170 | 95.4 |
| CC(C)C[C@H](NC(=O)[C@H](Cc1ccccc1)NC(=O)c1cnccn1)B(O)O [Bortezomib] + C/C(O)=C(\C#N)C(=O)Nc1cc(Br)ccc1Br [LFM-A13] (first compound 0.001 µM, partner dose 2 µM) | 202 | 67.2 | 30.8 | 57.3 | 163 | 35 | 103 | 72.9 | 247 | 218 |
| CNC(=O)c1cc(Oc2ccc(NC(=O)Nc3ccc(Cl)c(C(F)(F)F)c3)cc2)ccn1 [sorafenib] + C/C(O)=C(\C#N)C(=O)Nc1cc(Br)ccc1Br [LFM-A13] (first compound 0.4 µM, partner dose 2 µM) | 143 | 152 | 158 | 341 | 109 | 69 | 192 | 75.6 | 171 | 135 |
| C[C@@H](Oc1cc(-c2cnn(C3CCNCC3)c2)cnc1N)c1c(Cl)ccc(F)c1Cl [Crizotinib] + C/C(O)=C(\C#N)C(=O)Nc1cc(Br)ccc1Br [LFM-A13] (first compound 0.2 µM, partner dose 2 µM) | 51.2 | 32.8 | 49.2 | 61.4 | 72.7 | 44.7 | 315 | 239 | 50.2 | 84.2 |
| O=C(O)c1ccc2c(c1)nc(Nc1cccc(Cl)c1)c1ccncc12 + Cc1cc(SCc2sc(-c3ccc(C(F)(F)F)c(F)c3)nc2C)ccc1OCC(=O)O [GW0742] (first compound 0.4 µM, partner dose 2 µM) | 37 | 83.6 | 131 | 121 | 27 | 111 | 112 | 192 | 85 | 115 |
| N.N.[Cl][Pt][Cl] [cisplatin] + CCCCCCCCCCCC1=C(O)C(=O)C=C(O)C1=O [Embelin] (first compound 1.6 µM, partner dose 1.2 µM) | 109 | 145 | 138 | 196 | 148 | 65.3 | 130 | 63.2 | 74 | 46 |
| O=C(Nc1cc(C(F)(F)F)cc(C(F)(F)F)c1)c1cc(Cl)ccc1O + O=C(Oc1ccc([N+](=O)[O-])cc1)N1CCC(C(O)(c2ccc3c(c2)OCO3)c2ccc3c(c2)OCO3)CC1 [JZL184] (first compound 0.016 µM, partner dose 1 µM) | 153 | 162 | 33.4 | 111 | 123 | 90.8 | 71.8 | 85.6 | 224 | 28 |
| CC1(C)CCC(c2ccc(Cl)cc2)=C(CN2CCN(c3ccc(C(=O)NS(=O)(=O)c4ccc(N[C@H](CCN5CCOCC5)CSc5ccccc5)c(S(=O)(=O)C(F)(F)F)c4)cc3)CC2)C1 + C/C(O)=C(\C#N)C(=O)Nc1cc(Br)ccc1Br [LFM-A13] (first compound 0.4 µM, partner dose 2 µM) | 373 | 765 | 201 | 136 | 368 | 258 | 47.7 | 145 | 561 | 1130 |
| N.N.[Cl][Pt][Cl] [cisplatin] + Cn1cc(/C=C2\C(=O)Nc3cccnc32)c2ccccc21 [GW441756] (first compound 1.6 µM, partner dose 0.4 µM) | 118 | 218 | 111 | 192 | 37.3 | 69.8 | 162 | 405 | 84.8 | 348 |

Source: the supplement of paper PMC4604168 (melanoma cell lines)
